In the supplement of paper PMC12067093, “Discovery and optimisation of a covalent ligand for TRIM25 and its application to targeted protein ubiquitination” (Chemical Science, 2025):
Some of the results follow.

Protein sequences, listed by entry. Tags and fused reporters are not part of them. Lines headed by an entry give the natural chain unless they say otherwise; changes in a name come on top.
UniProt P10599: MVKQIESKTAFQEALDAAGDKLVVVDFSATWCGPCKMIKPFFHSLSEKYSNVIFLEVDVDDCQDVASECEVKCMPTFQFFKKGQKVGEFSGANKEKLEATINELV
UniProt Q9H3M7: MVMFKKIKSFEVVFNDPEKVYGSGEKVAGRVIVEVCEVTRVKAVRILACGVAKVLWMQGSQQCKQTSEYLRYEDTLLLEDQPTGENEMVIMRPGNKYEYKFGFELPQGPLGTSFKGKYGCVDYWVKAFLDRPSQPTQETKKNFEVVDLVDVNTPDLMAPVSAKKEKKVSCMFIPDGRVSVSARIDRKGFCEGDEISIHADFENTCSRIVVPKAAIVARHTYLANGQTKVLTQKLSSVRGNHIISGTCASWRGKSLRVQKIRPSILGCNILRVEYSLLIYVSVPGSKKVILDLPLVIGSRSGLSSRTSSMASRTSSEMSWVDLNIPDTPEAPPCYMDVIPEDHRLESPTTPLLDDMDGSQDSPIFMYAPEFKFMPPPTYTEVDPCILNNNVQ
UniProt Q8IWV8: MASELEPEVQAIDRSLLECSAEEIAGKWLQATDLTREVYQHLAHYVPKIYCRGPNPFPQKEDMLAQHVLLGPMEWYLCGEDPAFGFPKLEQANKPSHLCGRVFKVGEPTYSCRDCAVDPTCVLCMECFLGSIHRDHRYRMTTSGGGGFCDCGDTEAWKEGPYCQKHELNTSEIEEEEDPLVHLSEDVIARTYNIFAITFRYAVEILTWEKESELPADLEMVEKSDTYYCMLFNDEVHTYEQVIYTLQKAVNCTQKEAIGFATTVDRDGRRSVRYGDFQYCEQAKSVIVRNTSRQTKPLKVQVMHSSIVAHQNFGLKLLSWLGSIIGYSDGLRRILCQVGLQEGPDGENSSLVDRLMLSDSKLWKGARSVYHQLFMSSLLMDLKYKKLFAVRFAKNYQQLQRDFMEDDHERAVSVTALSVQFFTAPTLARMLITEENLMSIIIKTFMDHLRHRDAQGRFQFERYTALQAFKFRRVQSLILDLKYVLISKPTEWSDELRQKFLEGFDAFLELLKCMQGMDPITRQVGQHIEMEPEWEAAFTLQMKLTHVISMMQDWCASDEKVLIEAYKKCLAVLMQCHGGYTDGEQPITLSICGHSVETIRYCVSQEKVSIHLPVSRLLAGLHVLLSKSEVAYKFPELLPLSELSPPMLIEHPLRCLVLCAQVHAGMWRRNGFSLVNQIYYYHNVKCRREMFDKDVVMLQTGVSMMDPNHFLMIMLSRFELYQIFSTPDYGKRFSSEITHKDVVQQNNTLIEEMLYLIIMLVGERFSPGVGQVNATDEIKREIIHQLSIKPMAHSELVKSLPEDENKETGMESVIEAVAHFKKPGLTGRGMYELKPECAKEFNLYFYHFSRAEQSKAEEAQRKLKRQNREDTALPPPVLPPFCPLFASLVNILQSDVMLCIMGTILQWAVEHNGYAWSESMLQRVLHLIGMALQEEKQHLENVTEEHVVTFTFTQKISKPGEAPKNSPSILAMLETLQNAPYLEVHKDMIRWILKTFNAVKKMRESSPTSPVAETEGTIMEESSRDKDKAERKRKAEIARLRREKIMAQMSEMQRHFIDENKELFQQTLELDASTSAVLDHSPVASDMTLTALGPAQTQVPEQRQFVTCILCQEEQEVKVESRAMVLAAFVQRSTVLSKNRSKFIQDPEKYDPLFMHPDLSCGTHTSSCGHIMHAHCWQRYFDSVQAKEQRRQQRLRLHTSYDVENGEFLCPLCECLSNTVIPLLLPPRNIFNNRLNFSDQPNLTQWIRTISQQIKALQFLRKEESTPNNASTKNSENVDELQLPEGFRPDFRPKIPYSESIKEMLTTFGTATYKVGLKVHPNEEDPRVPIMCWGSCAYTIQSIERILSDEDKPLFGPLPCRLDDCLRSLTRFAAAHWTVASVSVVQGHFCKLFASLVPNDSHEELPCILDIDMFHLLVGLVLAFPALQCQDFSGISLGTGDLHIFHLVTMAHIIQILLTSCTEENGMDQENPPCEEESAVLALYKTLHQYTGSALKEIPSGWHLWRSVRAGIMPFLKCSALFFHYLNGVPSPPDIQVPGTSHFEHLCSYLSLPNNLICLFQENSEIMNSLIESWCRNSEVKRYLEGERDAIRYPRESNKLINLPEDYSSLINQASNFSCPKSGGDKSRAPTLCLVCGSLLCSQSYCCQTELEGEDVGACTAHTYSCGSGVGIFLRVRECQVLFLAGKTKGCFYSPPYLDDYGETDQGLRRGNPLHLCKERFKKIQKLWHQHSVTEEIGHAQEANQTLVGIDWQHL
UniProt Q9UBT2: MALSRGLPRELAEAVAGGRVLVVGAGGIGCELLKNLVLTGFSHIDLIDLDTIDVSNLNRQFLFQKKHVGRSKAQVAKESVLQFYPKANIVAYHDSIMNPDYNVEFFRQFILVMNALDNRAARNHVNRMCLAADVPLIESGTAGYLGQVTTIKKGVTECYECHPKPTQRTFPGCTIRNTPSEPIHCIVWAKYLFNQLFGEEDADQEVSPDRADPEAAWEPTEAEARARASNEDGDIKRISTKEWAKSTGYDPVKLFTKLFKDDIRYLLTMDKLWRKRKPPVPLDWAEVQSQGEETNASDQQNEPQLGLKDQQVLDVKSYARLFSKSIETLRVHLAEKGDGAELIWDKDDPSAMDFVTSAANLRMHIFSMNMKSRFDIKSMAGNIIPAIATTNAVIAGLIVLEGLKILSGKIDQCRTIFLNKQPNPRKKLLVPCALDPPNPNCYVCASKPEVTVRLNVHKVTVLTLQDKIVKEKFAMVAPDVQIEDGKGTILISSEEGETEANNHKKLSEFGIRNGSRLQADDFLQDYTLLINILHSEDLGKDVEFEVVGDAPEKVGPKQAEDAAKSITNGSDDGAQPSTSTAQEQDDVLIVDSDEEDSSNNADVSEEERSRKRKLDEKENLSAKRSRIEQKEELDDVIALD
UniProt Q7Z6J8: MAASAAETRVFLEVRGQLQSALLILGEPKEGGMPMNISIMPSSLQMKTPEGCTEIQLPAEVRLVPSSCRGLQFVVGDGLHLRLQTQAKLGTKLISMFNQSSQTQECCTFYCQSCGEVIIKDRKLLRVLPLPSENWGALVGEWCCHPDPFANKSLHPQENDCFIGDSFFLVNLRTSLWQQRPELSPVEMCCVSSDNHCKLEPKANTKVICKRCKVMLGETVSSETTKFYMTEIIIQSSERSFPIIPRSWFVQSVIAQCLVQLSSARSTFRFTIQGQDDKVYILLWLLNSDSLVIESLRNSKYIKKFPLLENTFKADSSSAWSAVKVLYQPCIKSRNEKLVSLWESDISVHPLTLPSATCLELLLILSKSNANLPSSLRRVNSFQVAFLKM
UniProt P41226: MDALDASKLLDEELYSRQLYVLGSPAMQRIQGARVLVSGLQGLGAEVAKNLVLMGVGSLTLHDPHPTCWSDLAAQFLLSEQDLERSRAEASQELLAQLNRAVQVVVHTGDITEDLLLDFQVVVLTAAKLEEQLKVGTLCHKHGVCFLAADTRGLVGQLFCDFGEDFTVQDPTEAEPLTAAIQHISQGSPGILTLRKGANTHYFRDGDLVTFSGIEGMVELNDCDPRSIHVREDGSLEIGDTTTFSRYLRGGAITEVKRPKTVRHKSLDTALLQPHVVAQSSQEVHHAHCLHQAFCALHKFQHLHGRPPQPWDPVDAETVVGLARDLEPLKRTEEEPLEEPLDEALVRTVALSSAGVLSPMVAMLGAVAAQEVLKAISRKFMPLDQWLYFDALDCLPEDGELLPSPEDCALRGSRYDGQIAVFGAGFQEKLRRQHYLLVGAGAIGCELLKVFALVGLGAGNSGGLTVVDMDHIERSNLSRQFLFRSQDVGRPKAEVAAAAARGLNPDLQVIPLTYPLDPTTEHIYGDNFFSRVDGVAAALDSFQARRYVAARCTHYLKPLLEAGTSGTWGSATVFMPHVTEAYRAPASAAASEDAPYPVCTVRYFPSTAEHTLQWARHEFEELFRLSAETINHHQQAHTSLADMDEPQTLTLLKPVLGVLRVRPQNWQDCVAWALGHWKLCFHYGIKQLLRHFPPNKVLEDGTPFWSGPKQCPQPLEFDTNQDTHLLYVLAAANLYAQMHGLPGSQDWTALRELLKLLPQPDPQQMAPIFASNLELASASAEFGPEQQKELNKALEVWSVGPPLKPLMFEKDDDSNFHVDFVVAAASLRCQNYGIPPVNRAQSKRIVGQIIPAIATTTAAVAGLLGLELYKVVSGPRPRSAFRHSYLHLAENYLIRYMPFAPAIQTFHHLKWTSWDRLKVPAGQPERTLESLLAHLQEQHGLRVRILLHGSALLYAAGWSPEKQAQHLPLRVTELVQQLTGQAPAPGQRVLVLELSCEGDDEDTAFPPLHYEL
UniProt Q6NUM6: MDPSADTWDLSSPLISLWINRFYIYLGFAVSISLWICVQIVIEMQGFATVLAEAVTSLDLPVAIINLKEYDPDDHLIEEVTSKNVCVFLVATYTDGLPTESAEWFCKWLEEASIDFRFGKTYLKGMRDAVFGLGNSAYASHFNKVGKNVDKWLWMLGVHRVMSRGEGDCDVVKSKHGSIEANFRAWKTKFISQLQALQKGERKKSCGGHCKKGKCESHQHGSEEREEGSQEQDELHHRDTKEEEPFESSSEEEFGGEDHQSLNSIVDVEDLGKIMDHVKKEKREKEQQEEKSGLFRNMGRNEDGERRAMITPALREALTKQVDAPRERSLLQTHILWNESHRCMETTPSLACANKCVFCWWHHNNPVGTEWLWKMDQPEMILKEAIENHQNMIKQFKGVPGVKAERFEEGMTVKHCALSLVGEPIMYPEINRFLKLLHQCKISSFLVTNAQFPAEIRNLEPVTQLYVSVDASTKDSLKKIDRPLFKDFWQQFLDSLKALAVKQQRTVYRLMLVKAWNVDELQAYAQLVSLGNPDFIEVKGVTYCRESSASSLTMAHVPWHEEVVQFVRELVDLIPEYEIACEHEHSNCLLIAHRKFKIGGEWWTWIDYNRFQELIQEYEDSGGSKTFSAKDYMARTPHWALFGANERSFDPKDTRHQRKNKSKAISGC
UniProt Q5T6F2: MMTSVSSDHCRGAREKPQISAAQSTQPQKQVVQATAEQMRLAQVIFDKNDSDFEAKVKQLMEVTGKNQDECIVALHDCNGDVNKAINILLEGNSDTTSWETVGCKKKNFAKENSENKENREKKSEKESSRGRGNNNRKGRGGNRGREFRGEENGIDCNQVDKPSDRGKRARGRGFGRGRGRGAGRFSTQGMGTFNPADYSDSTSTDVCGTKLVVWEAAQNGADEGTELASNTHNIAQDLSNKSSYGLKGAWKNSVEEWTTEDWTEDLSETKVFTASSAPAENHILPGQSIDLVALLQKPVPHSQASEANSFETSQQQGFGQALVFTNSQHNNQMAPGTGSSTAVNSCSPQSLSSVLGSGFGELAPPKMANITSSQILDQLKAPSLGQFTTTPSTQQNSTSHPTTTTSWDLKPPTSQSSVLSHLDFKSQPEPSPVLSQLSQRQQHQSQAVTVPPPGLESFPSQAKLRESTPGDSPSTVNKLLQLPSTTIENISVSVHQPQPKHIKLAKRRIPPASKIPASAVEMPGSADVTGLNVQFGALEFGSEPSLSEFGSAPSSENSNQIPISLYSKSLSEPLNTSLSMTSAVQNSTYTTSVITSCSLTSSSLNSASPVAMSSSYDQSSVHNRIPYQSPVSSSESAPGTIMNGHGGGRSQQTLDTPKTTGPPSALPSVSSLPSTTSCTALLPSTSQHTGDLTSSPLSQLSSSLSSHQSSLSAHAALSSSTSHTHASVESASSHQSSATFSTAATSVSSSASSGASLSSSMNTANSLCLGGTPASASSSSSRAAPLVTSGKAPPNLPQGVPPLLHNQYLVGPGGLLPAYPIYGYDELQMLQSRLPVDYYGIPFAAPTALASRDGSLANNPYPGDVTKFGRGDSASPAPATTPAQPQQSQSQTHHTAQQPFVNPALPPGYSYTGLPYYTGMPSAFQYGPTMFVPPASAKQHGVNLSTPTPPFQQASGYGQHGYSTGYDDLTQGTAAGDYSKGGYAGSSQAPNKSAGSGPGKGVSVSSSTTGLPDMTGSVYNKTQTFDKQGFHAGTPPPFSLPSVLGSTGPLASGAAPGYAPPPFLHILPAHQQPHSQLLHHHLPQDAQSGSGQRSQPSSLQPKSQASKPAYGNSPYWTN
UniProt P19971: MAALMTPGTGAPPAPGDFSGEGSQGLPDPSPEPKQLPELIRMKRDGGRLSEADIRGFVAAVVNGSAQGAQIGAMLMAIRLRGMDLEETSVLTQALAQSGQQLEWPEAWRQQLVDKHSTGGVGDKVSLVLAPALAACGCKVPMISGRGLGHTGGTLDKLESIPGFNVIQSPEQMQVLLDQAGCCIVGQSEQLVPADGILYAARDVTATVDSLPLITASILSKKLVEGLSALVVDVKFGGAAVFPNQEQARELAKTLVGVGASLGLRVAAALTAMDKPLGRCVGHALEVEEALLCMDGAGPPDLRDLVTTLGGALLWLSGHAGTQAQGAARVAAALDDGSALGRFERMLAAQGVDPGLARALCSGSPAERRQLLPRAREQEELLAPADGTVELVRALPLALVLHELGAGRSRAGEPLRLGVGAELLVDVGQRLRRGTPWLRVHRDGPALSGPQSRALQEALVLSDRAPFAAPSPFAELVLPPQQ

Compound: CC1Cc2ccccc2N1C(=O)C1CCCN(C1)C(=O)CCl (mixture of isomers) [TRIM25 ligand 11 (diastereomer mixture)]
Test: probe-labelled cysteine peptide fold change vs DMSO (competition) (log2 fold change); higher = less target engagement (more negative = stronger competition)
Conditions: THP-1, incubation time: 4 h
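Further: competitive chemoproteomic profiling in live THP-1 cells with an iodoacetamide desthiobiotin (IA-DTB) probe, comparing probe-labelled peptide intensities in compound-treated cells against DMSO-treated controls.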

| Target | probe-labelled cysteine peptide fold change (10 µM) | probe-labelled cysteine peptide fold change (50 µM) |
| --- | --- | --- |
| UBAP2L_Q14157_68+75_NQDECVIALHDCNGDVNR (UniProt Q14157) | -0.146 | -0.229 |
| UBR4_Q5T4S7_4890_QQGYSTVSHFNIVHYDCHLAAVR (UniProt Q5T4S7) | -0.0243 | 0.16 |
| TXN_P10599_32_LVVVDFSATWCGPCK (UniProt P10599) | -0.17 | -0.358 |
| UBR4_Q5T4S7_4642_FKPYCNFDK (UniProt Q5T4S7) | 0.184 | 0.12 |
| TXNIP_Q9H3M7_170_VSCMFIPDGR (UniProt Q9H3M7) | 0.144 | 0.136 |
| UBR2_Q8IWV8_1717_GNPLHLCK (UniProt Q8IWV8) | 0.0377 | -0.289 |
| UBA2_Q9UBT2_30_VLVVGAGGIGCELLK (UniProt Q9UBT2) | -0.0223 | -0.0553 |
| UBE3D_Q7Z6J8_330_VLYQPCIK (UniProt Q7Z6J8) | -0.0233 | -0.00246 |
| UBA2_Q9UBT2_161_GVTECYECHPKPTQR (UniProt Q9UBT2) | 0.0622 | -0.0622 |
| TXNRD1_Q16881_214_WGLGGTCVNVGCIPKK (UniProt Q16881) | -0.351 | -0.152 |
| TXNIP_Q9H3M7_63_VLWMQGSQQCK (UniProt Q9H3M7) | 0.115 | 0.423 |
| UBR1_Q8IWV7_1577_WCADPALLNCLK (UniProt Q8IWV7) | -0.00347 | 0.165 |
| UAP1L1_Q3KQV9_254_GVEFVHVYCVDNILVR (UniProt Q3KQV9) | -0.0722 | 0.0567 |
| UBA7_P41226_996_VLVLELSCEGDDEDTAFPPLHYEL (UniProt P41226) | -0.0956 | -0.106 |
| TYW1B_Q6NUM6_581_ELVDLIPEYEIACEHEHSNCLLIAHR (UniProt Q6NUM6) | 0.268 | 0.256 |
| UBR4_Q5T4S7_4838+4841_QMEELIEEPGLTCCICR (UniProt Q5T4S7) | 0.0403 | 0.214 |
| UBAP2_Q5T6F2_104_AINILLEGNSDTTSWETVGCK (UniProt Q5T6F2) | -0.0614 | 0.0342 |
| TYMP_P19971_138_VSLVLAPALAACGCK (UniProt P19971) | -0.0756 | -0.184 |
| TXNL1_O43396_135+149_AGCECLNESDEHGFDNCLR (UniProt O43396) | 0.0914 | -0.234 |
| UBA7_P41226_445_QHYLLVGAGAIGCELLK (UniProt P41226) | -0.00329 | 0.0965 |
| UBR2_Q8IWV8_336_ILCQVGLQEGPDGENSSLVDR (UniProt Q8IWV8) | -0.00789 | -0.00301 |
| TXNRD2_Q9NNW7_483_CGASYAQVMR (UniProt Q9NNW7) | -0.00687 | 0.0142 |

Quoted from the listing.
TYW1B_Q6NUM6_581_ELVDLIPEYEIACEHEHSNCLLIAHR (UniProt Q6NUM6) | probe-labelled cysteine peptide fold change (50 µM): 0.256
UBE3D_Q7Z6J8_330_VLYQPCIK (UniProt Q7Z6J8) | probe-labelled cysteine peptide fold change (50 µM): -0.00246
